This note sets out measurements from US9150526B2, “Biaryl-propionic acid derivatives and their use as pharmaceuticals” (SANOFI, priority 2013, dated 2015).

This test concerns Recombinant human cathepsin A. As to the kind of experiment: Cathepsin A inhibitory activity (Bodipy FL-bradykinin substrate, microfluidic capillary electrophoresis). Type of test: biochemical. The conditions noted are these: read-out: CATH A IC50. As to the method:
Pharmacological Tests a) Cathepsin a Inhibitory Activity
Recombinant human cathepsin A (residues 29-480, with a C-terminal 10-His tag; R&D Systems, #1049-SE) was proteolytically activated with recombinant human cathepsin L (R&D Systems, #952-CY). Briefly, cathepsin A was incubated at 10 μg/ml with cathepsin L at 1 μg/ml in activation buffer (25 mM 2-(morpholin-4-yl)-ethanesulfonic acid (MES), pH 6.0, containing 5 mM dithiothreitol (DTT)) for 15 min at 37° C.
The activated cathepsin A was diluted in assay buffer (25 mM MES, pH 5.5, containing 5 mM DTT) and mixed with the test compound (dissolved in assay buffer containing (v/v) 3% DMSO) or, in the control experiments, with the vehicle in a multiple assay plate. […]
Uncleaved substrate and product were then separated by a microfluidic capillary electrophoresis on a LabChip® 3000 Drug Discovery System (12-Sipper-Chip; Caliper Life Sciences) and quantified by determination of the respective peak areas. Substrate turnover was calculated by dividing product peak area by the sum of substrate and product peak areas, and the enzyme activity and the inhibitory effect of the test compound thus quantified.

Take `COc1cccc(OC)c1-c1cc(F)cc(C(CC(=O)O)c2ncco2)c1` (stereo not shown) [compound 98]: the IC50 was 18 nM.

By IC50 is commonly meant the concentration that inhibits the measured activity by half.
